Test results taken from patent US20230414619A1.
Results are given in words; binding and its absence hold for the method and conditions named. Some binding calls cover weakened binding; strength is not graded here.

Chains of the proteins cited; added tags and fusions are not shown. Lines headed by an entry give the natural chain unless they say otherwise; changes in a name come on top. Residues count along the entry.
UniProt P55884: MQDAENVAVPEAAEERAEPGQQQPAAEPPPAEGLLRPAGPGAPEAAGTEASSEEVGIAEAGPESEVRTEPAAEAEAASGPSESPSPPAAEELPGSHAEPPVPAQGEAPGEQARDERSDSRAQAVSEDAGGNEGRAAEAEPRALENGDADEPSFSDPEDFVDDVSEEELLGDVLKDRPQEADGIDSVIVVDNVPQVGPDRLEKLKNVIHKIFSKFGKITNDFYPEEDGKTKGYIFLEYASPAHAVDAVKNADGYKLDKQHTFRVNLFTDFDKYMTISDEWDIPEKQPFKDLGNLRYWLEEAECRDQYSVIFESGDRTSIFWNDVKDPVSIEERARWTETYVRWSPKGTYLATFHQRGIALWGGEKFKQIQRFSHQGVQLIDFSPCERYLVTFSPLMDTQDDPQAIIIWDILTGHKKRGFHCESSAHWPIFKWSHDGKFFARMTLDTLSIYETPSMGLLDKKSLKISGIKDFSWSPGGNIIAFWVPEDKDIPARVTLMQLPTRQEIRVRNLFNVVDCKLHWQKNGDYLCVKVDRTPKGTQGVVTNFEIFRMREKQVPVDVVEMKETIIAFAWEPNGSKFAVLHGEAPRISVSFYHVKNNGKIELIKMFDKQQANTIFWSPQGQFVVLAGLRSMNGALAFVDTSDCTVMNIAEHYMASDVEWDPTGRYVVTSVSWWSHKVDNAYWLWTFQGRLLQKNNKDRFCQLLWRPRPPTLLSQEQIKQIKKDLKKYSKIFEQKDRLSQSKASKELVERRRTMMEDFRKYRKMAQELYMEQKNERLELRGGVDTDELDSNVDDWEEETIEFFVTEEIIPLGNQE
UniProt P06730, residues 2-217: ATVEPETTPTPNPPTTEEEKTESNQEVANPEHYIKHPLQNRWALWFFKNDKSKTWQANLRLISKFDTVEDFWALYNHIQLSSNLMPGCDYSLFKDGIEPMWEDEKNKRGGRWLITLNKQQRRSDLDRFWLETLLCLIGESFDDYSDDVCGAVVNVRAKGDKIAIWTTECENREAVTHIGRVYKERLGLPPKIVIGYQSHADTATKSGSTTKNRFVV
UniProt Q8C3P7, residues 2-580: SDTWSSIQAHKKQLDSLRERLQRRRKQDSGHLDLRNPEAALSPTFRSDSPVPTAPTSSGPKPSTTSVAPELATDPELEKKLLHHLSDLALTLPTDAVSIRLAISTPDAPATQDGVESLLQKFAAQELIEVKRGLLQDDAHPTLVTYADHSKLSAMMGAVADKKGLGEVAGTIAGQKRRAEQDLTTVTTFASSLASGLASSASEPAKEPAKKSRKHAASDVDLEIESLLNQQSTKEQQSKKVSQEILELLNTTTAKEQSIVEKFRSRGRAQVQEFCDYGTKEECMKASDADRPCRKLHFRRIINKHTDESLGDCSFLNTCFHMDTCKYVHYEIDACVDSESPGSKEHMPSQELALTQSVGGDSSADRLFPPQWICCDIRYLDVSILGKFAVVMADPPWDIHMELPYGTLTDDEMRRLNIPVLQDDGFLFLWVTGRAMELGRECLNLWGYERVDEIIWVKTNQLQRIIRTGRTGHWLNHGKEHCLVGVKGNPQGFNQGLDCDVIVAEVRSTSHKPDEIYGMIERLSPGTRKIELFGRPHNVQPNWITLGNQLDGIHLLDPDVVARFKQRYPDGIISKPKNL
UniProt Q61188: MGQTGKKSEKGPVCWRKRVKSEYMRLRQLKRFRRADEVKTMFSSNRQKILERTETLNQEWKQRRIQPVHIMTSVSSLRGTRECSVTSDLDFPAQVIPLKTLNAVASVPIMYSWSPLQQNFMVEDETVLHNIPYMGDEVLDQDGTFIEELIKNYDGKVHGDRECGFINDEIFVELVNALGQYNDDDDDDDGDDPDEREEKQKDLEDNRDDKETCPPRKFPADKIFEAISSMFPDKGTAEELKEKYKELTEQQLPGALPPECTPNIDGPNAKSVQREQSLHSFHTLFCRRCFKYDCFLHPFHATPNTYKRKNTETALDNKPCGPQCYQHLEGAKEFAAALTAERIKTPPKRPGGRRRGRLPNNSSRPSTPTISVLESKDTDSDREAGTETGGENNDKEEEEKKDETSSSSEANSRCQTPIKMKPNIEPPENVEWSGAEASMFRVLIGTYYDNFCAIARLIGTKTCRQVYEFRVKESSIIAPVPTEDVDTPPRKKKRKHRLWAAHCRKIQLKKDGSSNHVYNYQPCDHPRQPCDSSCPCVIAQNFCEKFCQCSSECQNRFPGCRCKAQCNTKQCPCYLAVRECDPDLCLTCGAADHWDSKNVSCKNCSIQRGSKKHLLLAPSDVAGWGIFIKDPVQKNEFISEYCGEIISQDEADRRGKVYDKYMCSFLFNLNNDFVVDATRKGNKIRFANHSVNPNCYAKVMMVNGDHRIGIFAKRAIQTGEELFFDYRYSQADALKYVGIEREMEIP
UniProt Q921E6, residues 2-441: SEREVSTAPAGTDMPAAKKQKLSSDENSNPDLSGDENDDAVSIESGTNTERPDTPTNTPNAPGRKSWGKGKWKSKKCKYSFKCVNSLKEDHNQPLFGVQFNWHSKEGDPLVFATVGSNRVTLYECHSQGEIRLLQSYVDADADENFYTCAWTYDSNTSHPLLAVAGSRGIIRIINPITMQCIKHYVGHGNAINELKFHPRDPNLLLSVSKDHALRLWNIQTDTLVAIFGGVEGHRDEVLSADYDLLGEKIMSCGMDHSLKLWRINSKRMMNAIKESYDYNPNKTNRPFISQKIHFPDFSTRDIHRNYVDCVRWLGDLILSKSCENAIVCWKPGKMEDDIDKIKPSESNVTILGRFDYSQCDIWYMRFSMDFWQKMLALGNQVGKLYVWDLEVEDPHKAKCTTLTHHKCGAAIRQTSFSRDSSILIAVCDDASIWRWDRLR
UniProt Q80U70: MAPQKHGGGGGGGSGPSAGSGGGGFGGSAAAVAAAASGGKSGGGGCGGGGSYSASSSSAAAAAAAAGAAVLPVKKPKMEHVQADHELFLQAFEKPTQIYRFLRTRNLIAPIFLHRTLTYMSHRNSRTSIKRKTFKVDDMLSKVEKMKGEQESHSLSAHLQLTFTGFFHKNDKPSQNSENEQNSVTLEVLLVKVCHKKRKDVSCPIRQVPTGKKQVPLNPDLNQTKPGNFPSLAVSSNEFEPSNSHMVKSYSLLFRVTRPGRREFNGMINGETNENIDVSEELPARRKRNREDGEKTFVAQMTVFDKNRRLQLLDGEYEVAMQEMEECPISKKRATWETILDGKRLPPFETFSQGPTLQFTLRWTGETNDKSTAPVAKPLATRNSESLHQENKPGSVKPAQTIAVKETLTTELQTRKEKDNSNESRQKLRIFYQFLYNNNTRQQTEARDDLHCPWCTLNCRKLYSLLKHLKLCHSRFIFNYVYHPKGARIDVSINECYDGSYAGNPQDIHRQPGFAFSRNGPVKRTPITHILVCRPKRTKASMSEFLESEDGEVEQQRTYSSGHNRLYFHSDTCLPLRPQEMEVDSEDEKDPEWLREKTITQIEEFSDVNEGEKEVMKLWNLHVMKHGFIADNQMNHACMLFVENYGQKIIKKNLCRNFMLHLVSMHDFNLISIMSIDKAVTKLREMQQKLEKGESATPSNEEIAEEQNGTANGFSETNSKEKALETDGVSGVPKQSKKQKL
UniProt Q7JJ13: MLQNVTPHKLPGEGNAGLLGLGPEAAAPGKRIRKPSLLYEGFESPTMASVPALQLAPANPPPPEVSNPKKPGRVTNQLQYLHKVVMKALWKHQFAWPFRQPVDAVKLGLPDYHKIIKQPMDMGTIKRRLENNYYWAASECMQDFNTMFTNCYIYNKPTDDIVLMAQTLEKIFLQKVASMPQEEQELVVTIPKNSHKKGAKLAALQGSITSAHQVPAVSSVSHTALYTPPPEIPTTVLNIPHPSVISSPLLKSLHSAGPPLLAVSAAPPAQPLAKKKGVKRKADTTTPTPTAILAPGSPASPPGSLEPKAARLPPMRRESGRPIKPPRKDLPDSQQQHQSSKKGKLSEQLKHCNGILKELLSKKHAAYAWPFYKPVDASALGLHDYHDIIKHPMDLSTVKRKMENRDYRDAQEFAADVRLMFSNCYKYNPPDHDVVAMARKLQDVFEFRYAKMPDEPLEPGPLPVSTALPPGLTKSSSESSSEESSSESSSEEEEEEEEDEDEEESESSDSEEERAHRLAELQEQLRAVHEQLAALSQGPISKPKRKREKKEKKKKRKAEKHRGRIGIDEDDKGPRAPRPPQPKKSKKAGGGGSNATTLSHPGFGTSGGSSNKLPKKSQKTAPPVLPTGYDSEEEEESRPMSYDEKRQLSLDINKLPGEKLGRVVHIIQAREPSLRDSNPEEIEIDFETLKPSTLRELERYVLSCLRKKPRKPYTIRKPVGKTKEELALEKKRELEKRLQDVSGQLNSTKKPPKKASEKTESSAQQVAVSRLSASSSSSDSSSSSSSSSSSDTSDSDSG
UniProt Q86U44: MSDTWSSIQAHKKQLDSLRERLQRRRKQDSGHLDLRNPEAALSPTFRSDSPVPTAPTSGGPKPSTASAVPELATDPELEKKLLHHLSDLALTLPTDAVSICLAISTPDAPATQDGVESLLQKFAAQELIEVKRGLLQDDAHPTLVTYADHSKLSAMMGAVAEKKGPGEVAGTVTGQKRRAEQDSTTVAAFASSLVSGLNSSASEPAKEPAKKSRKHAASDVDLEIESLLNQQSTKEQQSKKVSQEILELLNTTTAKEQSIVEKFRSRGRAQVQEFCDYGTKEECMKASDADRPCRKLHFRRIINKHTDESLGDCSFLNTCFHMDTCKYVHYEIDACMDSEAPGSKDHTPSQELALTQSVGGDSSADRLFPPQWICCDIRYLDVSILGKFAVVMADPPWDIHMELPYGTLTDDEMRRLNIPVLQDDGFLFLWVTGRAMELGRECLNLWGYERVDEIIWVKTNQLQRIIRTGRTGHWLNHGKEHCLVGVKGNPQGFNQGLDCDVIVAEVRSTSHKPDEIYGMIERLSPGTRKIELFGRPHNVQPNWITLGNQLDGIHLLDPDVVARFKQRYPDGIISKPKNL
UniProt Q9Z148: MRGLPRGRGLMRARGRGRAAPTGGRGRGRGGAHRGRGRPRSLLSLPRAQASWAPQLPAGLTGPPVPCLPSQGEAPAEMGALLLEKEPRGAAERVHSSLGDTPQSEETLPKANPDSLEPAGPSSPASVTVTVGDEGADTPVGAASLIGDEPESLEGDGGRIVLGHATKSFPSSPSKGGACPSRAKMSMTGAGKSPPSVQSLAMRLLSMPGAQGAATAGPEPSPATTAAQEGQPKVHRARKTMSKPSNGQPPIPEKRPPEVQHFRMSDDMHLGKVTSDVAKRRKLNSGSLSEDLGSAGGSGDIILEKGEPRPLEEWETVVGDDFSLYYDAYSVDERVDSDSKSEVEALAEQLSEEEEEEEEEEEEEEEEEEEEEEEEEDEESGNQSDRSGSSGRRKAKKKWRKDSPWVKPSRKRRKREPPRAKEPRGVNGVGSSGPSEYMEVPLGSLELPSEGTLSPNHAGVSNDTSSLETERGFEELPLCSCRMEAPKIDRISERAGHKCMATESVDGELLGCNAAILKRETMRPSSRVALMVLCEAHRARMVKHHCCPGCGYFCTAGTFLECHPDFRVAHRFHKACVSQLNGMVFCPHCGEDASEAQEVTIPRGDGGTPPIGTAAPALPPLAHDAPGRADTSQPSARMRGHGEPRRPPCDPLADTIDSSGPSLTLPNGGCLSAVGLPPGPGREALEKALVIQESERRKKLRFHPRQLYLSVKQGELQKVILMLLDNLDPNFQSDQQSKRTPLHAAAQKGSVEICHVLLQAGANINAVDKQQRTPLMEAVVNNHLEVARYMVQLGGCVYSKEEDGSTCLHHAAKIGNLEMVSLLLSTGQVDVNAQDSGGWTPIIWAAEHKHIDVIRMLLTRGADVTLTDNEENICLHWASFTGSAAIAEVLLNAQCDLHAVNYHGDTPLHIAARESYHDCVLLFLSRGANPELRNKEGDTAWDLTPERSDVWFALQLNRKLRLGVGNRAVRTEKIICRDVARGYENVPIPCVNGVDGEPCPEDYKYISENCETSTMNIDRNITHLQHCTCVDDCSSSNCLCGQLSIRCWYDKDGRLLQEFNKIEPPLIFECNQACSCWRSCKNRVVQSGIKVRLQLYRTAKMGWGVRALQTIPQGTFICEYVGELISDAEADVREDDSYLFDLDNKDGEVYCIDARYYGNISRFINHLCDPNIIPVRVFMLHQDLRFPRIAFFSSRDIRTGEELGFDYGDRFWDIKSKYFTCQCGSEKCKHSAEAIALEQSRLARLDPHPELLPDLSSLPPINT

Columns and labels:
eIF3b = eIF3b (UniProt P55884); test: Flag IP and immunoblot, densitometry
eIF4e = eIF4e (UniProt P06730); test: Flag IP and immunoblot, ET 293-TLR4/CD14/MD2 cells
[1] = molecular target: endogenous METTL3 of Raw 264.7 macrophages (mouse) (UniProt Q8C3P7); test: UNC0965 pull-down and immunoblot, Raw264.7 macrophages
[2] = molecular target: histone methyltransferase Ezh2 (Enhancer of zeste homolog 2) (mouse) (UniProt Q61188); test: LFQ UNC0965 ChaC-MS, macrophages
EED (mouse) = EED (mouse) (UniProt Q921E6); test: LFQ UNC0965 ChaC-MS, macrophages
SUZ12 (mouse) = SUZ12 (mouse) (UniProt Q80U70); test: LFQ UNC0965 ChaC-MS, macrophages
SMARCA2 (mouse) = SMARCA2 (mouse) (UniProt Q6DIC0); test: UNC0965 ChaC-MS (recap)
BRD2 (mouse) = BRD2 (mouse) (UniProt Q7JJ13); test: UNC0965 ChaC-MS (recap)
[3] = molecular target: T1, splicing factor SF3B1 (mouse) (UniProt Q99NB9); test: UNC0965 ChaC-MS (recap)
T1 sequence (looked up): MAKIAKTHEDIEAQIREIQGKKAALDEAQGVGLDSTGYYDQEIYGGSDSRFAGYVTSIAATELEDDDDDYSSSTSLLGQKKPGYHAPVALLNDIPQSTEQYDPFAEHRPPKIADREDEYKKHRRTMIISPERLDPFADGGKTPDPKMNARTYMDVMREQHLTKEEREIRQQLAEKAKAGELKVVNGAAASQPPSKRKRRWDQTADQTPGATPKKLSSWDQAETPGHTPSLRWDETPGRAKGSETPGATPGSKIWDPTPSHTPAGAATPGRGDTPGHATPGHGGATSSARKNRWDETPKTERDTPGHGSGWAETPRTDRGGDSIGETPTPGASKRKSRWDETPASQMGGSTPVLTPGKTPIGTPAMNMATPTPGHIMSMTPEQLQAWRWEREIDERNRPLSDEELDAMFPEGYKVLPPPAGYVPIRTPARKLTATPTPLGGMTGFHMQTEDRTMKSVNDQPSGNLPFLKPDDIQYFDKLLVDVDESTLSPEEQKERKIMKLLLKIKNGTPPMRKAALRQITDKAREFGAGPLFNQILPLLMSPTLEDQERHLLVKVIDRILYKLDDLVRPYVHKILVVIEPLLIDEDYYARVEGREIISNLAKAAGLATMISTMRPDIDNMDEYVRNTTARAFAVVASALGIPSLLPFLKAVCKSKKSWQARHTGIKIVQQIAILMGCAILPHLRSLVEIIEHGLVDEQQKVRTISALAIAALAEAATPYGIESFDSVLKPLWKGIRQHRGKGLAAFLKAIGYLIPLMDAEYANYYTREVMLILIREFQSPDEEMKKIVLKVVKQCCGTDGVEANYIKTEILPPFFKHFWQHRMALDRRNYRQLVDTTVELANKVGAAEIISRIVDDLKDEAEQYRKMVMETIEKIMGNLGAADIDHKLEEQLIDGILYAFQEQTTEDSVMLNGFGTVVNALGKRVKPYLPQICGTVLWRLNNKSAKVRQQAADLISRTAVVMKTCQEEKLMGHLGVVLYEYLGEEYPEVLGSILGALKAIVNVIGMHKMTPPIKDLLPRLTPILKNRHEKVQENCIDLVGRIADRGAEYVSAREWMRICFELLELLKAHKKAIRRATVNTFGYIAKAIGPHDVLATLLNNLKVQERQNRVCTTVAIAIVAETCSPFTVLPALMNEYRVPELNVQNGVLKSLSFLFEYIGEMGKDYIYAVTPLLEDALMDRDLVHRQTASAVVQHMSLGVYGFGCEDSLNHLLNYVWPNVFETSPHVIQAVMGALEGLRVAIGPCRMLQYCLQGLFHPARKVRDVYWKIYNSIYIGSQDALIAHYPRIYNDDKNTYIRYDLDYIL

SMARCC2 (mouse) = SMARCC2 (mouse) (UniProt Q6PDG5); test: UNC0965 ChaC-MS (recap)
SMARCA4 (mouse) = SMARCA4 (mouse) (UniProt Q3TKT4); test: UNC0965 ChaC-MS (recap)
CREBBP (mouse) = CREBBP (mouse) (UniProt P45481); test: UNC0965 ChaC-MS (recap)
[4] = molecular target: endogenous METTL3 of Raw 264.7 macrophages (mouse) (UniProt Q8C3P7); test: UNC0965 ChaC-MS (recap)
[5] = molecular target: T1, splicing factor SF3B1 (mouse); test: LFQ UNC0965 ChaC-MS, Raw 264.7 macrophages

Measured: binding

Flag-K215R METTL3 (from UniProt Q86U44 1-580) (enzyme)
binds: eIF3b | eIF4e

Flag-K281R METTL3 (from UniProt Q86U44 1-580) (enzyme)
binds: eIF3b | eIF4e

endogenous G9a of Raw 264.7 macrophages (from UniProt Q9Z148 1-1263) (enzyme)
not listed: eIF3b | eIF4e
binds: all other assays above
